assay: Color of colored solution observed with the naked eye; type: physicochemical; conditions: 15% by mass pigment-n-hexane solution
From the text: Azomethine pigments (preparing the above exemplified compounds D-1, D-5, D-11, D-20, D-26, D-38, D-43, D-46, D-49, D-55, D-56, D-57 and D-65 shown in the following Table) and n-hexane as an organic solvent were mixed to prepare a 15% by mass azomethine pigment-n-hexane solution (colored composition), thereby manufacturing 13 kinds of colored solutions.

SMILES | Solution color
CCCCCCCCN(CCCCCCCC)c1ccc(N=C2C(=O)N(c3ccccc3)N=C2C)c(C)c1 [Pigment D-1] | Orange
CCCCCCCCN1N=C(C(C)(C)C)C(=Nc2ccc(N(CC)CC)cc2C)C1=O [Pigment D-5] | Red-orange
CCCCCCN(CCCCCC)c1ccc(N=C2C(=O)N(c3ccccc3)N=C2C(C)(C)C)c(C)c1 [Pigment D-11] | Orange
CCCCCCCCOc1cc(N(CCCC)CCCC)ccc1N=C1C(=O)ON=C1c1ccccc1 [Pigment D-20] | Orange
CCCCCCCCNC(=O)C1=CC(=Nc2ccc(N(CCCCCCCC)CCCCCCCC)cc2)C=C(C)C1=O [Pigment D-26] | Blue
CCCCCCCCCCCCCCCCNC(=O)C1=CC(=Nc2ccc(N(CC)CC)cc2CC)c2ccccc2C1=O [Pigment D-38] | Blue
CCCCCCCCCCCCCCCCCCNC(=O)C1=CC(=Nc2ccc(N(CC)CC)cc2OC)c2ccccc2C1=O [Pigment D-43] | Blue
CCCCCCN(CCCCCC)c1ccc(N=C2C=C(C(=O)Nc3ccccc3)C(=O)c3ccccc32)c(C)c1 [Pigment D-46] | Blue
CCCCCCCCN(CCCCCCCC)c1ccc(N=C2C(C(C)(C)C)=Nn3nc(-c4ccccc4)nc32)c(C)c1 [Pigment D-49] | Orange
CCCCCCOc1cc(N(CCCCCC)CCCCCC)ccc1N=C1C(C#N)=Nn2nc(C(C)(C)C)nc21 [Pigment D-56] | Red
CCCCCCCCN1CCc2cc(/N=C3/C(C)=Nn4nc(C(C)CNC(=O)C(CCCCCC)Oc5ccc(C(C)(C)CC)cc5C(C)(C)CC)nc43)ccc21 [Pigment D-57] | Red
CCCCCCN(CCCCCC)c1cc(C)c(N=C2C(C#N)=C(C(=O)OC3C(C(C)(C)C)CC(C)CC3C(C)(C)C)c3nc(C(C)(C)C)nn32)c(C)c1 [Pigment D-65] | Green
CCN(CC)c1ccc(N=C2C(=O)N(c3ccccc3)N=C2C)c(C)c1 [Pigment D-101, reference compound] | Hardly
CCN(CC)c1ccc(N=C2C(=O)ON=C2C(C)(C)C)cc1 [Pigment D-102, reference compound] | Hardly
CCN(CC)c1ccc(N=C2C=C(NC(C)=O)C(=O)C(Cl)=C2C)c(C)c1 [Pigment D-103, reference compound] | Hardly
CCCCN(CCCC)c1ccc(N=C2C=C(C(=O)NC)C(=O)c3ccccc32)cc1 [Pigment D-104, reference compound] | Hardly
CCN(CC)c1ccc(/N=C2\C(C#N)=C(C(=O)OC)c3nc(-c4ccc(C(C)(C)C)cc4)nn32)c(C)c1 [Pigment D-106, reference compound] | Hardly

From patent US9482924B2, “Colored composition and image display structure” (FUJIFILM CORPORATION, priority 2011, dated 2016)
